Patent US12295964B2, “Treating pain associated with chemotherapy-induced peripheral neuropathy” (MEDICON PHARMACEUTICALS, INC., priority 2021, dated 2025)
Some entries share one result that the patent states for a list of compounds.

Assay: PS and metabolites in proximal and distal half of the sciatic nerve of mice with paclitaxel-induced PN
Type: in vivo, mouse
Conditions: 30 min after last dose; PS 8% ointment 3x/d for 2 wks; listed as sulindac
Procedure: In a separate experiment we studied 8 mice with paclitaxel-induced PN treated with PS 8% ointment 3×/d for 2 wks. Mice were euthanized as above 30 minutes after the last dose of PS. From these mice we harvested both sciatic nerves dividing each into proximal and distal halves, and combined the corresponding halves of every two animals for assay of drug levels.

SMILES: CC1=C(CC(=O)O)c2cc(F)ccc2/C1=C\c1ccc([S+](C)[O-])cc1 (stereo not shown) [Sulindac, sulindac, reference compound]
- Fold difference (distal vs proximal half of sciatic nerve): 4.5-8.5
